The text below walks through data of patent publication US8952147B2 (Sanofi, priority 2009, dated 2015).

The first series can be described thus: peptide synthesis. As to conditions: conjugation step.
In the case of “Allyl (2-{2-[2-(2-{4-[(2R,3R)-3-((S)-1-{(E)-(3S,10R,16S)-10-[3-chloro-4-methoxy-benzyl]-3-isobutyl-6,6-dimethyl-2,5,9,12-tetraoxo-1,4-dioxa-8,11-diazacyclohexadec-13-en-16-yl}ethyl)oxiranyl]benzylamino}ethoxy)ethoxy]ethoxy}ethoxy)propanoate”, the conjugation yield was 27%. On the same count and under the same terms, to “FmocVal-Cit-PABAC-α-aminocryptophycin 77” belongs 95%.

Still in this series, the particulars now being: late stage modification step.
Turning to “4-((2S,3S)-3-{(S)-1-[(E)-(3S,10R,16S)-10-(3-Chloro-4-methoxybenzyl)-3-isobutyl-6,6-dimethyl-2,5,9,12-tetraoxo-1,4-dioxa-8,11-diazacyclohexadec-13-en-16-yl]ethyl}oxiranyl)-benzyl[2-methyl-2-(pyridin-2-yldisulfanyl)propyl]methylcarbamate”, the step yield is given as 30%. For the substance “(1-{4-[(2R,3R)-3-((S)-1-{(E)-(3S,10R,16S)-10-[3-Chloro-4-methoxybenzyl]-3-isobutyl-6,6-dimethyl-2,5,9,12-tetraoxo-1,4-dioxa-8,11-diazacyclohexadec-13-en-16-yl}ethyl)-oxiranyl]benzyl}-1H-1,2,3-triazol-4-yl)butanoic acid”, the step yield is given as 76%. Substance “(4-{1-[(4-{(2R,3R)-3-[(S)-1-((E)-(3S,10R,16S)-10-{3-Chloro-4-methoxybenzyl}-3-isobutyl-6,6-dimethyl-2,5,9,12-tetraoxo-1,4-dioxa-8,11-diazacyclohexadec-13-en-16-yl)ethyl]-oxiranyl}benzyl)methylamino]methyl}-1,2,3-triazol-1-yl)butanoic acid” gave a step yield of 80%. “(4-{4-[(2R,3R)-3-((S)-1-{(E)-(3S,10R,16S)-10-[3-Chloro-4-methoxybenzyl]-3-isobutyl-6,6-dimethyl-2,5,9,12-tetraoxo-1,4-dioxa-8,11-diazacyclohexadec-13-en-16-yl}ethyl)-oxiranyl]benzyl}piperazin-1-yl)acetic acid” had a step yield of 55%. “(E)-(3S,6R,10R,16S)-10-(3-Chloro-4-methoxybenzyl)-3-isobutyl-6-methyl-16-[(S)-1-((2R,3R)-3-{4-[4-(4-methyl-4-methyldisulfanylpentanoyl)piperazin-1-ylmethyl]phenyl}oxiranyl)-ethyl]-1,4-dioxa-8,11-diazacyclohexadec-13-ene-2,5,9,12-tetraone” had a step yield of 80%.

As to “(E)-(3S,6R,10R,16S)-10-(3-Chloro-4-methoxybenzyl)-16-{(S)-1-[(R)-3-(4-chloro-methylphenyl)oxiranyl]ethyl}-3-isobutyl-6-methyl-1,4-dioxa-8,11-diazacyclohexadec-13-ene-2,5,9,12-tetraone”, the step yield is reported as 79%. On to “(E)-(3S,10R,16S)-10-(3-Chloro-4-methoxybenzyl)-3-isobutyl-16-[(S)-1-((2R,3R)-3-{4-[4-({2-[2-(2-{2-methyl[2-mercapto-2-methylpropyl]aminoethoxy}ethoxy)ethoxy]ethyl}-methylamino)methyl]phenyl}oxiranyl)ethyl]-6,6-dimethyl-1,4-dioxa-8,11-diazacyclohexadec-13-ene-2,5,9,12-tetraone”, for which the step yield was 71%. “(E)-(3S,10R,16S)-16-{(S)-1-[(2R,3R)-3-(4-Aminomethylphenyl)oxiranyl]ethyl}-10-(3-chloro-4-methoxybenzyl)-3-isobutyl-6,6-dimethyl-1,4-dioxa-8,11-diazacyclohexadec-13-ene-2,5,9,12-tetraone” yielded a step yield of 59%. Same read-out and setting: to “(E)-(3S,10R,16S)-16-{(S)-1-[(2R,3R)-3-(4-Azidomethylphenyl)oxiranyl]ethyl}-10-(3-chloro-4-methoxybenzyl)-3-isobutyl-6,6-dimethyl-1,4-dioxa-8,11-diazacyclohexadec-13-ene-2,5,9,12-tetraone” belongs 74%; to “(E)-(3S,10R,16S)-16-{(S)-1-[(2S,3S)-3-(4-Aminomethylphenyl)oxiranyl]ethyl}-10-(3-chloro-4-methoxybenzyl)-3-isobutyl-6,6-dimethyl-1,4-dioxa-8,11-diazacyclohexadec-13-ene-2,5,9,12-tetraone”, 99%. “(E)-(3S,10R,16S)-16-{(S)-1-[(2S,3S)-3-(4-Azidomethylphenyl)oxiranyl]ethyl}-10-(3-chloro-4-methoxybenzyl)-3-isobutyl-6,6-dimethyl-1,4-dioxa-8,11-diazacyclohexadec-13-ene-2,5,9,12-tetraone” registered a step yield of 64%. In turn, “Allyl (4-{4-[(2R,3R)-3-((S)-1-{(E)-(3S,10R,16S)-10-[3-chloro-4-methoxybenzyl]-3-isobutyl-6,6-dimethyl-2,5,9,12-tetraoxo-1,4-dioxa-8,11-diazacyclohexadec-13-en-16-yl}ethyl)-oxiranyl]benzyl}piperazin-1-yl)acetate” showed a step yield of 56%. “Glutaric acid-Val-Cit-PABAC-α-aminocryptophycin 72” had a step yield of 48%.

On to “Glutaric acid-Val-Cit-PABAC-α-aminocryptophycin 77”, for which the step yield is 104% crude. Substance “Methyl (1-{4-[(2R,3R)-3-((S)-1-{(E)-(3S,10R,16S)-10-[3-chloro-4-methoxybenzyl]-3-isobutyl-6,6-dimethyl-2,5,9,12-tetraoxo-1,4-dioxa-8,11-diazacyclohexadec-13-en-16-yl}ethyl)-oxiranyl]benzyl}-1H-1,2,3-triazol-4-yl)butanoate” yielded a step yield of 98%. Same read-out and setting: for “Methyl (4-{1-[(4-{(2R,3R)-3-[(S)-1-((E)-(3S,10R,16S)-10-{3-chloro-4-methoxy-benzyl}-3-isobutyl-6,6-dimethyl-2,5,9,12-tetraoxo-1,4-dioxa-8,11-diazacyclohexadec-13-en-16-yl)ethyl]oxiranyl}benzyl)methylamino]methyl}-1,2,3-triazol-1-yl)butanoate” the value was 62%; for “Methyl (4-{4-[(2R,3R)-3-((S)-1-{(E)-(3S,10R,16S)-10-[3-Chloro-4-methoxy-benzyl]-3-isobutyl-6,6-dimethyl-2,5,9,12-tetraoxo-1,4-dioxa-8,11-diazacyclohexadec-13-en-16-yl}ethyl)oxiranyl]benzyl}piperazin-1-yl)acetate”, 34%; for Val-Cit-PABAC-α-aminocryptophycin 72, 82%. The same measure, in the same setting: for Val-Cit-PABAC-α-aminocryptophycin 77 the value was 60%.

Still in this series, the particulars now being: late stage modification step; run 1.
For “(E)-(3S,10R,16S)-10-(3-Chloro-4-methoxybenzyl)-16-{(S)-1-[(R)-3-(4-chloro-methylphenyl)oxiranyl]ethyl}-3-isobutyl-6,6-dimethyl-1,4-dioxa-8,11-diazacyclohexadec-13-ene-2,5,9,12-tetraone”, the step yield turned out to be 81%.

Staying with this series, now noted: late stage modification step; run 2.
Take “(E)-(3S,10R,16S)-10-(3-Chloro-4-methoxybenzyl)-16-{(S)-1-[(R)-3-(4-chloro-methylphenyl)oxiranyl]ethyl}-3-isobutyl-6,6-dimethyl-1,4-dioxa-8,11-diazacyclohexadec-13-ene-2,5,9,12-tetraone”: the step yield came out at 87%.
